# In publication PMC5996148:
# This is one part of the list.
# Tests used:
# Assay in all cases: protein microarray (ProtoArray v5.0), streptavidin-Alexa Fluor 647
# Settings in all cases: 3'-biotin; 20 mM Tris (pH 7.5), 5 mM MgCl2, 100 mM KCl, 0.1% Tween-20, A/T-rich and random oligonucleotide blockers; temperature not stated; high values mean tight binding
# NRARP (human) = tested on: NRARP (human)
# NUCB1 (human) = tested on: NUCB1 (human)
# NUDT9 (human) = tested on: NUDT9 (human)
# NUMB (human) = tested on: NUMB (human)
# NVL (human) = tested on: NVL (human)
# NY-SAR-48 (human) = tested on: NY-SAR-48 (human)
# [1] = tested on: Neurocalcin-delta (human)
# Neuroplastin (human) = tested on: Neuroplastin (human)
# [2] = tested on: Non-histone chromosomal protein HMG-14 (human)
# [3] = tested on: Nuclear protein Hcc-1 (human)
# [4] = tested on: Nuclear receptor-binding protein (human)
# [5] = tested on: Nucleotide-binding protein 1 (human)
# ODAM (human) = tested on: ODAM (human)
# OGN (human) = tested on: OGN (human)
# OGT (human) = tested on: OGT (human)
# OPA1 (human) = tested on: OPA1 (human)
# OPA3 (human) = tested on: OPA3 (human)
# OR4D6 (human) = tested on: OR4D6 (human)
# ORM1 (human) = tested on: ORM1 (human)
# ORM2 (human) = tested on: ORM2 (human)
sequence,measurement,setting,value
GGGGACAGGGGTATGGGGAGGGG [G4-3 biotinylated (CtG)],binding signal,NRARP (human),-0.338 z-score
same,binding signal,NUCB1 (human),-0.309 z-score
same,binding signal,NUDT9 (human),-0.326 z-score
same,binding signal,NUMB (human),-0.338 z-score
same,binding signal,NVL (human),-0.329 z-score
same,binding signal,NY-SAR-48 (human),-0.315 z-score
same,binding signal,[1],-0.337 z-score
same,binding signal,Neuroplastin (human),-0.316 z-score
same,binding signal,[2],7.64 z-score
same,binding signal,[3],7.27 z-score
same,binding signal,[4],-0.325 z-score
same,binding signal,[5],-0.293 z-score
same,binding signal,ODAM (human),-0.334 z-score
same,binding signal,OGN (human),-0.326 z-score
same,binding signal,OGT (human),-0.342 z-score
same,binding signal,OPA1 (human),-0.281 z-score
same,binding signal,OPA3 (human),-0.304 z-score
same,binding signal,OR4D6 (human),-0.318 z-score
same,binding signal,ORM1 (human),-0.329 z-score
same,binding signal,ORM2 (human),-0.326 z-score

# Some of the entries so far, with bars between the fields.
sequence | measurement | setting | value
GGGGACAGGGGTATGGGGAGGGG [G4-3 biotinylated (CtG)] | binding signal | [3] | 7.27 z-score
same | binding signal | [4] | -0.325 z-score
